{
  "source": "the supplement of paper PMC8497498",
  "note": "The other results are listed elsewhere or left out. The data scatter; read single values as rough.",
  "data": [
    {"test_system": "primary human hepatocytes", "assay": "hepatic nuclei reduction relative to DMSO (100 - % of negative control); higher = more toxic to hepatocytes", "settings": "10 µM; assay mode: Radical Cure (treated from day 5 post-infection for 3 days), fixed day 8 post-infection", "units": {"hepatic nuclei reduction": "%"}, "values": [
      {"smiles": "CCCCN(CCCC)CCC(O)c1cc2c(Cl)cc(Cl)cc2c2cc(C(F)(F)F)ccc12", "note": "(stereo not given)", "hepatic nuclei reduction": 0},
      {"smiles": "COCCNC(=O)c1ccc(OC2CCN(Cc3ccc(F)c(F)c3)CC2)c(Cl)c1", "hepatic nuclei reduction": 0},
      {"smiles": "Cc1cnc(N2CCN[C@@H](Cc3ccccc3)C2)nc1Oc1ccc(-n2ccnc2)cc1", "hepatic nuclei reduction": -6},
      {"smiles": "COc1ccc(CNC2CCN(c3ccc(NC(=O)c4cccc(Cl)c4)cc3)CC2)cc1OC", "hepatic nuclei reduction": 9},
      {"smiles": "O=C(Nc1nc(-c2ccccn2)cs1)c1ccccc1Br", "hepatic nuclei reduction": -3},
      {"smiles": "CC1=Nc2ccc(Cl)cc2C(O)(c2ccc(C)cc2)N1CCN1CCCCC1", "note": "(stereo not given)", "hepatic nuclei reduction": -11},
      {"smiles": "COc1ccc2nc3cc(Cl)ccc3c(Nc3cc(CN4CCCC4)c(O)c(CN4CCCC4)c3)c2n1", "hepatic nuclei reduction": 2},
      {"smiles": "COc1ccc2nc(C)cc(OCC(=O)NCc3ccccc3)c2c1", "hepatic nuclei reduction": -9},
      {"smiles": "OC(CNC1CCCCC1)Cn1c2ccc(I)cc2c2cc(I)ccc21", "note": "(stereo not given)", "hepatic nuclei reduction": -9},
      {"smiles": "COc1ccc(NC(=O)C2c3ccccc3C(=O)N(CC(C)C)C2c2cccs2)cc1", "note": "(stereo not given)", "hepatic nuclei reduction": -6},
      {"smiles": "CNc1nnc(Sc2cnn(-c3ccccc3)c(=O)c2Cl)s1", "hepatic nuclei reduction": 10},
      {"smiles": "N#CCN(CCCCN1CCN(c2ccc(F)cc2)CC1)C(=O)OCc1ccccc1", "hepatic nuclei reduction": -4},
      {"smiles": "CC(C)(C)CC(C)(C)NCC(O)COc1ccc(Cl)cc1Cl", "note": "(stereo not given)", "hepatic nuclei reduction": -4},
      {"smiles": "CCOc1cc2c(cc1OCC)C(c1cc(OC)c(O)cc1Cl)NCC2", "note": "(stereo not given)", "hepatic nuclei reduction": -8},
      {"smiles": "COc1cccc(-c2nn(C)c3sc(C(=O)NCCN4CCN(c5ccccc5F)CC4)cc23)c1", "hepatic nuclei reduction": -8}
    ]}
  ]
}
